Measured values reported in paper PMC10378556.
Results are given in words; binding and its absence hold for the method and conditions named. Binding seen in cells or lysates may run through a third protein. Some entries that bind do so weakly or less than the wild type. Each block holds one molecule with its values, some of them ahead of it.

Chains of the proteins cited; added tags and fusions are not shown.
UniProt A5YKK6: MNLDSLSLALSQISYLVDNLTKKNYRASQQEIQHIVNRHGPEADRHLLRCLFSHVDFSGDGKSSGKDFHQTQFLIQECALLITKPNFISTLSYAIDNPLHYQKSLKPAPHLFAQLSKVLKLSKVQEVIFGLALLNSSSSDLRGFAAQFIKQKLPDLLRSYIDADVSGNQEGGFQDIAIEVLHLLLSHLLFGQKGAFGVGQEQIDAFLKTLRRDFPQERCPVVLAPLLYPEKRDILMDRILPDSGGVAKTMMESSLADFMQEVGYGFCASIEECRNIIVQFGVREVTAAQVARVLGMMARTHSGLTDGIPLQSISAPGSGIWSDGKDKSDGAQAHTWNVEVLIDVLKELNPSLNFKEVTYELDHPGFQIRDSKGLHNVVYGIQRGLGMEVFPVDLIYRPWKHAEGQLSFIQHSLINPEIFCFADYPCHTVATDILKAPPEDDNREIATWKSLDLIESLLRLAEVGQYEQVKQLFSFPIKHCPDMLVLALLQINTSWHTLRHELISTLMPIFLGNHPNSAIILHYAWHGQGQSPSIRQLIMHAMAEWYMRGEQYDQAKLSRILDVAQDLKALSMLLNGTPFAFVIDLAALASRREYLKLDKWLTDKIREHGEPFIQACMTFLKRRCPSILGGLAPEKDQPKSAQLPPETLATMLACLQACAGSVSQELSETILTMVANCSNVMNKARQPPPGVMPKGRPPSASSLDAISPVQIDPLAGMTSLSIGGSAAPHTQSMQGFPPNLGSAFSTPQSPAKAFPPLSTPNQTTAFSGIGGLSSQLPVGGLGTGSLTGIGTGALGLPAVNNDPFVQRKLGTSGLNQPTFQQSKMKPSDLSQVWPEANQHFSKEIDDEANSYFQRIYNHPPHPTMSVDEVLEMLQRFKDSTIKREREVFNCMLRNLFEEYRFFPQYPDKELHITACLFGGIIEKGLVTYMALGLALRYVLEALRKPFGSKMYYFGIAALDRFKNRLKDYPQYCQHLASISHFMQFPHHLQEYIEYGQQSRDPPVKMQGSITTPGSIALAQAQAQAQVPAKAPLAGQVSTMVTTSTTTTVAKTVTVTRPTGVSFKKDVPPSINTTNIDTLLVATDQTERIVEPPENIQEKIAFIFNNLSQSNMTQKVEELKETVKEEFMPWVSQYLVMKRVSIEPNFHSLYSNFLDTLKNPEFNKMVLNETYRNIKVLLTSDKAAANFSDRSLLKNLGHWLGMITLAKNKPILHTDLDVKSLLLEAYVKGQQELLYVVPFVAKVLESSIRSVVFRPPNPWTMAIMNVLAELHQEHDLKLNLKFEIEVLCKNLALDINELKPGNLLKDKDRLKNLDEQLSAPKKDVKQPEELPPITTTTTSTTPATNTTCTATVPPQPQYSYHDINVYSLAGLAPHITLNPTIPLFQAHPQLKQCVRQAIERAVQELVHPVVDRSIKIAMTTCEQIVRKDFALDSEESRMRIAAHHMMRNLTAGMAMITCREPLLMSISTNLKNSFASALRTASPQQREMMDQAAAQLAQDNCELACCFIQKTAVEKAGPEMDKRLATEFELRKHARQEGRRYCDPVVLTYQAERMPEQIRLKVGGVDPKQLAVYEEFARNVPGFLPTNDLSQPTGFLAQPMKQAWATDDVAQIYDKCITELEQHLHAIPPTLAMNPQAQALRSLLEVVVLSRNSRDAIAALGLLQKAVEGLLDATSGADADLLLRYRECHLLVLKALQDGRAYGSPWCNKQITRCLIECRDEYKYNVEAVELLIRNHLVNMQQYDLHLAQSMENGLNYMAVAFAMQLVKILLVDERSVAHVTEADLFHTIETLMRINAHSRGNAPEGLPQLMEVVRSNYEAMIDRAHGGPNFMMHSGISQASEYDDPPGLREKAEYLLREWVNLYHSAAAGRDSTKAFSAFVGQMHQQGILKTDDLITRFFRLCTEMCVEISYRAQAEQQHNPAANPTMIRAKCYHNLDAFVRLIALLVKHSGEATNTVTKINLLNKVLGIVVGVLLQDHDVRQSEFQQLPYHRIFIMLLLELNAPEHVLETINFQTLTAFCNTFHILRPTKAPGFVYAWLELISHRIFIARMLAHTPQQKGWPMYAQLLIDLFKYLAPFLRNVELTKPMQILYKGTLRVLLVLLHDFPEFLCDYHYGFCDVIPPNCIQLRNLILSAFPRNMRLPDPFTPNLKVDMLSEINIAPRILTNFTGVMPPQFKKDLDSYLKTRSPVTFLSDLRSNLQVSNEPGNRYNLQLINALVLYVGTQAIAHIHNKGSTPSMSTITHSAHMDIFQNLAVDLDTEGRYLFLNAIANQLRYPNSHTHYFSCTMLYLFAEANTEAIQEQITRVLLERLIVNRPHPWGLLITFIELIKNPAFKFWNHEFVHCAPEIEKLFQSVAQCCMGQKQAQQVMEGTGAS
UniProt Q9C0C2: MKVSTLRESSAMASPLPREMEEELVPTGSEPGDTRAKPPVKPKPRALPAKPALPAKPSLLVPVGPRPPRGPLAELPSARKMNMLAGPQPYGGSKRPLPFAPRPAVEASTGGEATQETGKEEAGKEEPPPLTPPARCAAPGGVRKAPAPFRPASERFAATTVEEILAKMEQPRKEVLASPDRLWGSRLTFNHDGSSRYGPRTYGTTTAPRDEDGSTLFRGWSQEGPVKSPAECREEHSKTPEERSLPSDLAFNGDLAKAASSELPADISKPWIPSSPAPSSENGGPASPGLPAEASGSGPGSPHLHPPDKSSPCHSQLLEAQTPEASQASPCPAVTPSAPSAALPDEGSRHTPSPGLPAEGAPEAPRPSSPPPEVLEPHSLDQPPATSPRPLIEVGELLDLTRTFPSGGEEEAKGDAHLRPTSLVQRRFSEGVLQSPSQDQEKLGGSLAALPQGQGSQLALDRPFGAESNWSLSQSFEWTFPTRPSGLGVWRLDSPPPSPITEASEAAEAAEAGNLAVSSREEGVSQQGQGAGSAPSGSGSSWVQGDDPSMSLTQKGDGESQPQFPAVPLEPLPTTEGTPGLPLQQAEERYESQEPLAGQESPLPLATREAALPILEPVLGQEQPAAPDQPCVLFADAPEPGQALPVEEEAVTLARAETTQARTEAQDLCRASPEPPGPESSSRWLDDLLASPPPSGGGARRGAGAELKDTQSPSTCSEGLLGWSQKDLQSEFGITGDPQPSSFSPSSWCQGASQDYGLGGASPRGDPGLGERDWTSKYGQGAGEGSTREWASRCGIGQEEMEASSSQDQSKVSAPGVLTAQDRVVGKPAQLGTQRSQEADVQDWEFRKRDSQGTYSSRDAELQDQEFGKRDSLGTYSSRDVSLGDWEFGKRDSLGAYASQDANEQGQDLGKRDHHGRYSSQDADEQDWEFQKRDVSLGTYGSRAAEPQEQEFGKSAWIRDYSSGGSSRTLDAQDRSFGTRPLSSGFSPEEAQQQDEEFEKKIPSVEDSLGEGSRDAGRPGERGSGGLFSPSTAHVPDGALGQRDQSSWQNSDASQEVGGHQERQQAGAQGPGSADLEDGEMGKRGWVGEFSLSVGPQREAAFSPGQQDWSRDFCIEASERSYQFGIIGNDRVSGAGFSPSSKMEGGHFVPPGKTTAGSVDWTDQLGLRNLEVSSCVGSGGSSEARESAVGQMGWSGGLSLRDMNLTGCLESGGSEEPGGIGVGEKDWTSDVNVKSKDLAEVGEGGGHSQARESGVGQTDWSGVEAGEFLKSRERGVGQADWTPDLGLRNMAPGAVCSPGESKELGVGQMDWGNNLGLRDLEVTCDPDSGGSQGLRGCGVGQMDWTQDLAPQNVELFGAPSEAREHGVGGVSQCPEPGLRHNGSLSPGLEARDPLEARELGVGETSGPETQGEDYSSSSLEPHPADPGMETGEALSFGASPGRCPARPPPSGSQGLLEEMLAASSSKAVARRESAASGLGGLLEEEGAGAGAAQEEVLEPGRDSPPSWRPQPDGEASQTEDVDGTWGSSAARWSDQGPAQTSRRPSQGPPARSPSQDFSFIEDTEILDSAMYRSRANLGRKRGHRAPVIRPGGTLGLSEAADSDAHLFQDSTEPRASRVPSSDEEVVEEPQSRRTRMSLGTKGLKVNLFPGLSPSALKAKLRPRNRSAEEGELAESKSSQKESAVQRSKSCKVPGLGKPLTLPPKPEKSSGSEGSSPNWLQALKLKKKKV
UniProt P49736: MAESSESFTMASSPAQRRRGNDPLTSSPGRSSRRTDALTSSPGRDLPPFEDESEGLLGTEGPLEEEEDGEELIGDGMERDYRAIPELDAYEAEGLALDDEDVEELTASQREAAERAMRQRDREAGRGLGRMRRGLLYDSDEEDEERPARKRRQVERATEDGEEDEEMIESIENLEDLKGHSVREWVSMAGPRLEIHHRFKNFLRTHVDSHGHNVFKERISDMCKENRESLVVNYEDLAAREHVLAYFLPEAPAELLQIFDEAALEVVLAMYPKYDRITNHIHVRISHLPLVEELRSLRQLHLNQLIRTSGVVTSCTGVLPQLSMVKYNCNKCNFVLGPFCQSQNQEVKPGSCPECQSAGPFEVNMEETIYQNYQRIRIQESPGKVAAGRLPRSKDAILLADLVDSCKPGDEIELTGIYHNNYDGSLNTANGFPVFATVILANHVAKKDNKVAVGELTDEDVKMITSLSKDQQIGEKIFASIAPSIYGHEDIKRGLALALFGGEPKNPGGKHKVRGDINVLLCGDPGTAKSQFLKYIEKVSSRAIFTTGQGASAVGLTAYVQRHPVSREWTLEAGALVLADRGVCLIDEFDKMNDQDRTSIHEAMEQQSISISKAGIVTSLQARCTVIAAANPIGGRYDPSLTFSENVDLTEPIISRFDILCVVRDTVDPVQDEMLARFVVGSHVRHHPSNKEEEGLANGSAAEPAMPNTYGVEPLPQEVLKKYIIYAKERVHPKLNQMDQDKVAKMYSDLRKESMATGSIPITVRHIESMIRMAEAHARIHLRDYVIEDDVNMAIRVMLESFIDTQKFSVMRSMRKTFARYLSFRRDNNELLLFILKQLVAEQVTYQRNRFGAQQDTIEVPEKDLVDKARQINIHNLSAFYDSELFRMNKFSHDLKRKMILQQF

Columns and labels:
[1] = biological target: CNOT1 (human (endogenous in HeLa)) (UniProt A5YKK6); experiment: co-IP; HeLa cell lysates in NETN buffer (0.15 M NaCl, 40 mM Tris, 5 mM EDTA, pH 7.4) incubated overnight with CNOT1, Tab182 or irrelevant (collagen V) antibody; Protein G-agarose beads; Western blot of the co-precipitated proteins; for ATR also lysates of cells with and without ATR inhibitor AZD6738 (2 uM, 2 h)
[2] = biological target: Tankyrase 1 Binding Protein 1 (human (endogenous in HeLa)) (UniProt Q9C0C2); experiment: as above

- binding [1]: binds
- binding [2]: binds
Molecule: ATR (from UniProt Q13535 1-2644) (enzyme)

- binding [1]: binds
- binding [2]: binds
Molecule: MCM2 (from UniProt P49736 1-904)

- binding [1]: binds
- binding [2]: binds
B1: ORC3 (protein, UniProt Q9UBD5 1-711)
chain: MATSSMSKGCFVFKPNSKKRKISLPIEDYFNKGKNEPEDSKLRFETYQLIWQQMKSENERLQEELNKNLFDNLIEFLQKSHSGFQKNSRDLGGQIKLREIPTAALVLGVNVTDHDLTFGSLTEALQNNVTPYVVSLQAKDCPDMKHFLQKLISQLMDCCVDIKSKEEESVHVTQRKTHYSMDSLSSWYMTVTQKTDPKMLSKKRTTSSQWQSPPVVVILKDMESFATKVLQDFIIISSQHLHEFPLILIFGIATSPIIIHRLLPHAVSSLLCIELFQSLSCKEHLTTVLDKLLLTTQFPFKINEKVLQVLTNIFLYHDFSVQNFIKGLQLSLLEHFYSQPLSVLCCNLPEAKRRINFLSNNQCENIRRLPSFRRYVEKQASEKQVALLTNERYLKEETQLLLENLHVYHMNYFLVLRCLHKFTSSLPKYPLGRQIRELYCTCLEKNIWDSEEYASVLQLLRMLAKDELMTILEKCFKVFKSYCENHLGSTAKRIEEFLAQFQSLDETKEEEDASGSQPKGLQKTDLYHLQKSLLEMKELRRSKKQTKFEVLRENVVNFIDCLVREYLLPPETQPLHEVVYFSAAHALREHLNAAPRIALHTALNNPYYYLKNEALKSEEGCIPNIAPDICIAYKLHLECSRLINLVDWSEAFATVVTAAEKMDANSATSEEMNEIIHARFIRAVSELELLGFIKPTKQKTDHVARLTWGGC
